PubChem BioAssay AID1224830 | NIAID – 2016
Assay: 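Host factors that control LPS-induced TNF expression in human macrophages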 (primary screen). Cell system: human THP-1 monocytic leukaemia cells, TNF dual-luciferase reporter clone, PMA-differentiated to macrophage-like cells. Knock-down reagent: siRNA pool against human genes, 50 nM. Timing: LPS for 4 h, given about 3 days after siRNA transfection. Conditions: bacterial LPS (TLR4 ligand), 10 ng/ml. Measured: 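Ratio of firefly to renilla light, scaled to the plate median and expressed as a robust z-score per replicate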. Scale: TNF reporter robust z-score: higher = stronger TNF reporter response to LPS. Call rule: 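Each well counts as active if its z-score is over 2.8 or under -1.5; controls are left without a call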.
This is a random part of about 18,000 reagents. About 2,900 of them (16%) count as active. 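Calls are made per well; low scores hint the gene aids the LPS response, high scores that it dampens it.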 Unmarked entries are inactive. Repeated entries: four replicate wells of each siRNA pool. No sequences are given here.

gene	TNF reporter robust z-score
KATNAL2	-0.29
KATNAL2	-0.39
KATNAL2	-0.44
KATNAL2	-0.83
RFXANK	0.05
RFXANK	1.5
RFXANK	1.66
EFEMP1	-0.34
EFEMP1	1.67
EFEMP1	0.87
EFEMP1	0.96
LHX1	0.19
LHX1	-0.47
LHX1	-0.18
LHX1	-0.64
KIF14	1.55
KIF14	2.36
KIF14	2.61
KIF14	2.2
P4HA3	-0.43
P4HA3	0.24
P4HA3	0.18
P4HA3	0.93
TRMT2B	-0.1
TRMT2B	0.09
TRMT2B	0
TRMT2B	0.61
DCAF17	-1
DCAF17	-1.13
DCAF17	-0.69
DCAF17	-0.63
OR4E2	-0.99
OR4E2	-1.14
OR4E2	-0.52
OR4E2	-0.02
CIRBP-AS1	-0.29
CIRBP-AS1	-1.19
CIRBP-AS1	-0.68
CIRBP-AS1	-0.48
DUSP2	1.35
DUSP2	-0.41
DUSP2	0.19
DUSP2	3.04 (active)
CCDC174	1.57
CCDC174	2.34
CCDC174	0.38
CCDC174	1.14
OLFM1	-0.86
OLFM1	-1.18
OLFM1	-1.06
OLFM1	0.19
EGR3	0.32
EGR3	-0.68
EGR3	0.01
EGR3	-0.05

Laid out differently: results already given
| gene | TNF reporter robust z-score |
| --- | --- |
| DUSP2 | 3.04 (active) |
| CCDC174 | 1.57 |
| CCDC174 | 2.34 |
| CCDC174 | 0.38 |
| CCDC174 | 1.14 |
| OLFM1 | -0.86 |
| OLFM1 | -1.18 |
| OLFM1 | -1.06 |
| OLFM1 | 0.19 |
| EGR3 | 0.32 |

Additional reagents:
gene	TNF reporter robust z-score
GCSAM	0.18
GCSAM	-0.55
GCSAM	-0.24
GCSAM	-0.15
RAB3D	0.61
RAB3D	1.51
RAB3D	1.5
RAB3D	0.52
XKR3	-0.3
XKR3	0.14
XKR3	-0.55
XKR3	-0.01
FUT5	-0.55
FUT5	-0.51
FUT5	24.4 (active)
FUT5	-0.4
NEUROG1	0.56
NEUROG1	-0.06
NEUROG1	0.7
NEUROG1	-0.52
BDNF	-0.37
BDNF	0.22
BDNF	0.72
BDNF	1.92
SCUBE3	0.09
SCUBE3	1.43
SCUBE3	-0.15
SCUBE3	0.95
PIP4P2	0.17
PIP4P2	1.29
PIP4P2	0.25
PIP4P2	2.31
PPT2	-0.79
PPT2	-0.51
PPT2	0.96
PPT2	0.72
SPACA7	0.14
SPACA7	-0.04
SPACA7	0.01
SPACA7	0.99
POTEE	-0.8
POTEE	-0.38
POTEE	-0.27
POTEE	-0.13
STAG3	-0.18
STAG3	0.22
STAG3	0.13
STAG3	-0.05
LCTL	0.4
LCTL	0.93
LCTL	0.58
LCTL	0.16
KLHL26	-0.41
KLHL26	-0.92
KLHL26	-0.87
KLHL26	-0.3
SERINC4	-0.28
SERINC4	0.19
SERINC4	-0.76
SERINC4	0.89
CHRNB3	0.2
CHRNB3	-0.14
CHRNB3	0.54
CHRNB3	-1.03
MEIS2	-0.22
MEIS2	0.6
MEIS2	-0.27
MEIS2	0.25
KRT12	-0.9
KRT12	-0.08
KRT12	-1.05
KRT12	-1
PRKCZ	-0.43
PRKCZ	0.83
PRKCZ	0.81
PRKCZ	-0.32
C1QTNF4	0.88
C1QTNF4	4.05 (active)
C1QTNF4	3.37 (active)
C1QTNF4	4.06 (active)
WNT9A	-0.6
WNT9A	0.93
WNT9A	-1.18
WNT9A	-0.23
CARD8	-0.3
CARD8	0.36
CARD8	-0.73
CARD8	0.06
